According to PMC11234268:
Results are given in words; binding and its absence hold for the method and conditions named. Binding seen in cells or lysates may run through a third protein. Some binding calls cover weakened binding; strength is not graded here. For some of these results: Where a sequence is shown, tags or fusion partners need not be part of it.

Sequences of proteins named here, by UniProt entry; tags and fusion partners are left off.
UniProt P48165: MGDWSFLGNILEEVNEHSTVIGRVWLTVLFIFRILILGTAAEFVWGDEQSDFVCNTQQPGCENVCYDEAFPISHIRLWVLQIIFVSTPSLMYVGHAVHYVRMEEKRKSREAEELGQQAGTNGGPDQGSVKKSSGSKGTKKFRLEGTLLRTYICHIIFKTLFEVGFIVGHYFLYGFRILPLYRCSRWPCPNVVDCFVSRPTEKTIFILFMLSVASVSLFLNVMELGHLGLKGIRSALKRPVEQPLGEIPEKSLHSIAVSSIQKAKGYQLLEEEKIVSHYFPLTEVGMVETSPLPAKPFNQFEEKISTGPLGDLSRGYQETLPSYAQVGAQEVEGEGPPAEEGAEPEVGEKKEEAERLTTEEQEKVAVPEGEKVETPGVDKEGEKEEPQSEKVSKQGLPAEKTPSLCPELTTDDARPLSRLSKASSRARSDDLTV
UniProt Q676U5: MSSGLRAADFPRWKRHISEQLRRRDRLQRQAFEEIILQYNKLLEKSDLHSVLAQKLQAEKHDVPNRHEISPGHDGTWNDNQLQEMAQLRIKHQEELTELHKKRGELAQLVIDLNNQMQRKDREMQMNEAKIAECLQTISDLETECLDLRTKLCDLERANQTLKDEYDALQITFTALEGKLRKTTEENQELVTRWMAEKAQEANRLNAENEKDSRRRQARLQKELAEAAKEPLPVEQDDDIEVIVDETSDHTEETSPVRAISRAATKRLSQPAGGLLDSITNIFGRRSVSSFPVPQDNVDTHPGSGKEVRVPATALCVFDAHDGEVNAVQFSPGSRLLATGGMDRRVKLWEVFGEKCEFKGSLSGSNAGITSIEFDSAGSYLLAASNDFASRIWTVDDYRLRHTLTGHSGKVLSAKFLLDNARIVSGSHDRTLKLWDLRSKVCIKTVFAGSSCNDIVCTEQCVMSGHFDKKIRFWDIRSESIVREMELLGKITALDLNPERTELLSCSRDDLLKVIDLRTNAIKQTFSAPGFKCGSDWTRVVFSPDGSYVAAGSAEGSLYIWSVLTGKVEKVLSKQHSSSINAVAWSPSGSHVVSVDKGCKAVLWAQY

Legend:
[1] = target: CX50 (connexin 50), endogenous (human (endogenous in HLE cells)) (UniProt P48165); experiment: co-IP; endogenous proteins in HLE cells; RIPA lysate, antibody 4 h at 4 °C, protein A/G magnetic beads overnight, Western blot
[2] = target: Flag-tagged CX50 (connexin 50) (UniProt P48165); experiment: co-IP; HEK293T cells co-transfected with Flag-CX50 and HA-ATG16L1 (full length or deletion constructs); RIPA lysate, antibody 4 h at 4 °C, protein A/G magnetic beads overnight, Western blot
[3] = target: HA-tagged full-length ATG16L1 (UniProt Q676U5); experiment: co-IP; HEK293 cells transfected with ATG16L1-HA and gigaxonin-Flag with increasing amounts of CX50-GFP (24 h), or treated with DMSO or riboflavin for a further 24 h; ATG16L1-HA precipitated by anti-HA / HA affinity gels, Western blot

Which binding [1] does the source give for “ATG16L1, endogenous (from UniProt Q676U5 1-607)” here?
The binding was “binds”.

With “HA-tagged full-length ATG16L1 (from UniProt Q676U5 1-607)” as the molecule, how does the binding [2] read?
The binding was “binds”.

Which binding [3] does the source give for CX50-GFP (from UniProt P48165 1-433) here?
Its binding is “binds”.

B1: gigaxonin-Flag (E3 ubiquitin ligase gigaxonin) (protein, UniProt Q9H2C0 1-597)
chain: MAEGSAVSDPQHAARLLRALSSFREESRFCDAHLVLDGEEIPVQKNILAAASPYIRTKLNYNPPKDDGSTYKIELEGISVMVMREILDYIFSGQIRLNEDTIQDVVQAADLLLLTDLKTLCCEFLEGCIAAENCIGIRDFALHYCLHHVHYLATEYLETHFRDVSSTEEFLELSPQKLKEVISLEKLNVGNERYVFEAVIRWIAHDTEIRKVHMKDVMSALWVSGLDSSYLREQMLNEPLVREIVKECSNIPLSQPQQGEAMLANFKPRGYSECIVTVGGEERVSRKPTAAMRCMCPLYDPNRQLWIELAPLSMPRINHGVLSAEGFLFVFGGQDENKQTLSSGEKYDPDANTWTALPPMNEARHNFGIVEIDGMLYILGGEDGEKELISMECYDIYSKTWTKQPDLTMVRKIGCYAAMKKKIYAMGGGSYGKLFESVECYDPRTQQWTAICPLKERRFGAVACGVAMELYVFGGVRSREDAQGSEMVTCKSEFYHDEFKRWIYLNDQNLCIPASSSFVYGAVPIGASIYVIGDLDTGTNYDYVREFKRSTGTWHHTKPLLPSDLRRTGCAALRIANCKLFRLQLQQGLFRIRVHSP
With B1 as the molecule, how does the binding [3] read?
The binding was “binds”.
